Test results reported in the supplement of paper PMC10849652.
Some of the results follow.

By UniProt entry, the sequences of proteins in these tests, tags left out. Where a name states a change or a piece, a line headed by the entry shows the natural chain unless it says otherwise.
UniProt P53611: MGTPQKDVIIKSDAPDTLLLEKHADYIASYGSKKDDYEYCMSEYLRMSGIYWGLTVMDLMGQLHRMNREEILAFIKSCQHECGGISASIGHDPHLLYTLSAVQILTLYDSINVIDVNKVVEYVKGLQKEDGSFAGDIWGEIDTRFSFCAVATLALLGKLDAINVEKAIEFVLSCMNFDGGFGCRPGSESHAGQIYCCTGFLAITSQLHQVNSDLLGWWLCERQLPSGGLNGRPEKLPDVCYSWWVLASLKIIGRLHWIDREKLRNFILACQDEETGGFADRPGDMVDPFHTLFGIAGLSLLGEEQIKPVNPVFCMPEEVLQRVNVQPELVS
UniProt P20339: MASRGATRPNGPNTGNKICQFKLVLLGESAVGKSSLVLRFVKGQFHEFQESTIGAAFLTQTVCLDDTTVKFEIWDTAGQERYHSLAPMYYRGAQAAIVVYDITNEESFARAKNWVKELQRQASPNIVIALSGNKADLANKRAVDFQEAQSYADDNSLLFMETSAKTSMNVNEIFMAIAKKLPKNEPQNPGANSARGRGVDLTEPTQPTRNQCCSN
UniProt Q969Q5: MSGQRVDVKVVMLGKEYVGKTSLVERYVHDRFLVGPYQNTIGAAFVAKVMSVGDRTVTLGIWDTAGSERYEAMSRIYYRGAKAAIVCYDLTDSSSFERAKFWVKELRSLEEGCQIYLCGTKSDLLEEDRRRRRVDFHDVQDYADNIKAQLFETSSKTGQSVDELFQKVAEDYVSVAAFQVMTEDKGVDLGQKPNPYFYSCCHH
UniProt P09417: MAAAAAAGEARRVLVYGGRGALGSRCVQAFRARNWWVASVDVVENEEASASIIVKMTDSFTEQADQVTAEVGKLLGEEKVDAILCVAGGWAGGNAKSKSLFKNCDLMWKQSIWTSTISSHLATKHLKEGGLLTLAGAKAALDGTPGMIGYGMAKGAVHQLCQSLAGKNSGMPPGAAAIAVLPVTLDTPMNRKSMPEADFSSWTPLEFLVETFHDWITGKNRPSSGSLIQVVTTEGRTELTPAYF
UniProt Q96PU8: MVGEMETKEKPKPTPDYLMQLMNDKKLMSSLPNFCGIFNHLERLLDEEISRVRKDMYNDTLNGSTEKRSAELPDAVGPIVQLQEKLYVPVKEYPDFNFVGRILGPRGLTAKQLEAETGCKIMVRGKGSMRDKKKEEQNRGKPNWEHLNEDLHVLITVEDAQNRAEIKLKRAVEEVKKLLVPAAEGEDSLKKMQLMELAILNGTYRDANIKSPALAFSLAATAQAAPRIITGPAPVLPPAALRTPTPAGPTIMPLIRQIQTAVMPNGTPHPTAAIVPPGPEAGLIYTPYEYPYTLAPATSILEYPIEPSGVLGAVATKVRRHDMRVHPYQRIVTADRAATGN
UniProt Q9H974: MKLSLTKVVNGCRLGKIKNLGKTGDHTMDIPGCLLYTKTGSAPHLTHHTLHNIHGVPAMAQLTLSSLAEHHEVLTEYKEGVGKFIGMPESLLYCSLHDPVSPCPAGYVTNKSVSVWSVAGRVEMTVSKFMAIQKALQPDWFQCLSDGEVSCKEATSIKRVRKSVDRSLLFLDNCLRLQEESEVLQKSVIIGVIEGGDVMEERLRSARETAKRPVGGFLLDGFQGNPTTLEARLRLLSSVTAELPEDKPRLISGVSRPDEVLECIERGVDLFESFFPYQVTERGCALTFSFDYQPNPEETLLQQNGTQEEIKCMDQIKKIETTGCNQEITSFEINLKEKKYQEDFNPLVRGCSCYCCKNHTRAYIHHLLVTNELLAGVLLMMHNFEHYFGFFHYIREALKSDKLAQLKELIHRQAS
UniProt Q86X10: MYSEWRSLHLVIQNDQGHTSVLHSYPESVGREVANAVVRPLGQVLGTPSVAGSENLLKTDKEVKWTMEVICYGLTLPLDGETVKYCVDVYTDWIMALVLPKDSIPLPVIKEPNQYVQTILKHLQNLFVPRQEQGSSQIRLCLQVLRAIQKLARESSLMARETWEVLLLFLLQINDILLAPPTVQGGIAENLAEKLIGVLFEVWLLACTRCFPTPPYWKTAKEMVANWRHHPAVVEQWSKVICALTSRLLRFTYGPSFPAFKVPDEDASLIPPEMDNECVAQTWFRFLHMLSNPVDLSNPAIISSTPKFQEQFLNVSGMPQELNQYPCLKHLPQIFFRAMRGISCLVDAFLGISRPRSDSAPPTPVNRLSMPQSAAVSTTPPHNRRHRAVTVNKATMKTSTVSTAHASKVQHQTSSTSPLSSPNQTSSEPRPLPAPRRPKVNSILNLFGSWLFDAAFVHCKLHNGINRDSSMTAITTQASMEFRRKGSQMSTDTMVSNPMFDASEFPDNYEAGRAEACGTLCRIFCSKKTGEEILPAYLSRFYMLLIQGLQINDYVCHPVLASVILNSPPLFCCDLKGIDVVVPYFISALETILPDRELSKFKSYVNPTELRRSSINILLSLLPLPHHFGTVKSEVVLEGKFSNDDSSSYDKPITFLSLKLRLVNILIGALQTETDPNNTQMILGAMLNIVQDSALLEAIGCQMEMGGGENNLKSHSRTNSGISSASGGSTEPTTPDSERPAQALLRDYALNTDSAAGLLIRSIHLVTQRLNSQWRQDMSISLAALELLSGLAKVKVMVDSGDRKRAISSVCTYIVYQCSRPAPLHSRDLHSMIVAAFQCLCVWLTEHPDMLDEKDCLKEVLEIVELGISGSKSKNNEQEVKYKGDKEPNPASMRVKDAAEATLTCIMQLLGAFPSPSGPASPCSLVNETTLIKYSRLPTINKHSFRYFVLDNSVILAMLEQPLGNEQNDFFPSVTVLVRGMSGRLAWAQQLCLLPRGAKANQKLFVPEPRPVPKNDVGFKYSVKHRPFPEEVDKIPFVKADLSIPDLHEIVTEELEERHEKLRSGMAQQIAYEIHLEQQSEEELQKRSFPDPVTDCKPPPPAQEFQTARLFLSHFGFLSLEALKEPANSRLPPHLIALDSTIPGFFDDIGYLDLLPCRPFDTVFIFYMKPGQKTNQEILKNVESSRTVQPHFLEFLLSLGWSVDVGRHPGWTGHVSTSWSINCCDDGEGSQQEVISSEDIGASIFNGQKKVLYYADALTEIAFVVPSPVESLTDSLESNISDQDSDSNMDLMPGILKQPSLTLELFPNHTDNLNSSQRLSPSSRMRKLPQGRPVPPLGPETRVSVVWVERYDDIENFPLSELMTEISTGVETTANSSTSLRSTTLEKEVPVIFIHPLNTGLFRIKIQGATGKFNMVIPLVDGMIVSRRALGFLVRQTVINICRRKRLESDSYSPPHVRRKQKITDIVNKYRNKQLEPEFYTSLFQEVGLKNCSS

Tests used:
Test in all cases: log2 fold change, soluble protein after heating vs DMSO (PISA); higher = thermal stabilisation; K562 lysate, 10 uM; active = over 0.2 and 3.5 SD of the protein, either way, in both replicates (recomputed)
[1] = compound: CN1CC[C@H](c2c(O)cc(O)c3c(=O)cc(-c4ccccc4Cl)oc23)[C@H](O)C1 [alvocidib]
Procedure, shortened: (§1)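 K562 pellets were dounce-homogenised in PBS pH 7.4 with 1 mM MgCl2, and the crude extract at 1 mg/mL protein was treated with 10 μM compound for 30 min. Aliquots were heated for 3 min across 48°C-58°C, pooled, and brought to 0.5% NP-40 at 4°C; soluble protein was the supernatant after 21,000xg for 90 min. Soluble protein was quantified by TMTpro 16plex LC-MS/MS with channel sums equalised, and reported as log2 fold change in thermal stability against DMSO controls, with values from duplicates.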

[2] = compound: CN1CCc2c(c3ccccc3n2Cc2ccc(C(=O)NO)cc2)C1 [Tubastatin A]
Procedure, shortened: as §1

[3] = compound: CNC(=O)C1=CC=CC=C1NC2=NC(=NC=C2Cl)NC3=C(C=C(C=C3)N4CCOCC4)OC
Procedure, shortened: as §1

[4] = compound: CNC(=O)c1ccc(Nc2ncc(C(F)(F)F)c(NCc3nccnc3N(C)S(C)(=O)=O)n2)cc1 [defactinib]
Procedure, shortened: as §1

[5] = compound: CNc1nc(-c2ccc3c(N)n[nH]c3c2)cc(N2C[C@@H](C(=O)NC3CCCCC3)CC[C@H]2C)n1
Procedure, shortened: as §1

[6] = compound: COC(=O)N[C@@H](C)CNc1nccc(-c2cn(C(C)C)nc2-c2cc(Cl)cc(NS(C)(=O)=O)c2F)n1 [encorafenib]
Procedure, shortened: as §1

[7] = compound: COC(=O)[C@H](CCSC)NC(=O)C1=C(C=C(C=C1)NC[C@H](CS)N)C2=CC=CC=C2
Procedure, shortened: as §1

[8] = compound: COc1cc(Nc2ncc3c(n2)-c2ccc(Cl)cc2C(c2c(F)cccc2OC)=NC3)ccc1C(=O)O [alisertib]
Procedure, shortened: as §1

[9] = compound: COc1cc2nc(-c3cc(F)ccc3O)nc(N[C@@H]3CNC[C@H]3C(C)(C)O)c2cc1OC
Procedure, shortened: as §1

[10] = compound: COc1cc2ncnc(Nc3ccc(F)c(Cl)c3)c2cc1OCCCN1CCOCC1 [gefitinib]
Procedure, shortened: as §1

[11] = compound: CS(=O)(=O)CCNCc1ccc(-c2ccc3ncnc(Nc4ccc(OCc5cccc(F)c5)c(Cl)c4)c3c2)o1 [lapatinib]
Procedure, shortened: as §1

[12] = compound: CS(=O)(=O)N1CCN(Cc2cc3nc(-c4cccc5[nH]ncc45)nc(N4CCOCC4)c3s2)CC1 [pictilisib]
Procedure, shortened: as §1

[13] = compound: C[C@@H](Oc1cc(-c2cnn(C3CCNCC3)c2)cnc1N)c1c(Cl)ccc(F)c1Cl [crizotinib]
Procedure, shortened: as §1

[14] = compound: C[C@H](C1=CC=C(C=C1)C(=O)NC2=C3C=CNC3=NC=C2)N
Procedure, shortened: as §1

[15] = compound: C[C@H](Nc1ncnc2nc[nH]c12)c1cc2cccc(Cl)c2c(=O)n1-c1ccccc1 [duvelisib]
Procedure, shortened: as §1

[16] = compound: Cc1cc(Nc2cc(CN3CCOCC3)c3nc(C)c(Cc4ccc(Cl)cc4F)n3n2)n[nH]1 [gandotinib]
Procedure, shortened: as §1

[17] = compound: Cc1cc(Nc2cc(N3CCN(C)CC3)nc(Sc3ccc(NC(=O)C4CC4)cc3)n2)n[nH]1 [tozasertib]
Procedure, shortened: as §1

[18] = compound: Cc1ccc(-n2nc(C(C)(C)C)cc2NC(=O)Nc2ccc(OCCN3CCOCC3)c3ccccc23)cc1 [doramapimod]
Procedure, shortened: as §1

[19] = compound: Cc1ccc(NC(=O)c2ccc(CN3CC[C@H](N(C)C)C3)c(C(F)(F)F)c2)cc1Nc1nccc(-c2cncnc2)n1 [bafetinib]
Procedure, shortened: as §1

[20] = compound: Cc1cccc(CC(=O)N2CCc3c2ccc(-c2cn(C)c4ncnc(N)c24)c3F)n1
Procedure, shortened: as §1

Q: What does the source list for RABGGTB (UniProt P53611)?
A: log2 fold change [1]: inactive: -0.015; log2 fold change [2]: inactive: -0.043; log2 fold change [3]: inactive: -0.025; log2 fold change [4]: inactive: 0.031; log2 fold change [5]: inactive: -0.021; log2 fold change [6]: inactive: 0.044; log2 fold change [7]: inactive: 0.065; log2 fold change [8]: inactive: 0.005; log2 fold change [9]: inactive: 0.002; log2 fold change [10]: inactive: -0.002; log2 fold change [11]: inactive: -0.02; log2 fold change [12]: inactive: 0.006; log2 fold change [13]: inactive: -0.031; log2 fold change [14]: inactive: 0.135; log2 fold change [15]: inactive: 0.043; log2 fold change [16]: inactive: -0.051; log2 fold change [17]: inactive: -0.023; log2 fold change [18]: inactive: 0.016; log2 fold change [19]: inactive: -0.087; log2 fold change [20]: inactive: 0.028

Q: How did the log2 fold change [1] turn out when RAB5A (UniProt P20339) was run?
A: inactive: 0.004

Q: And the log2 fold change [2]?
A: inactive: 0.016

Q: What about the log2 fold change [3] of the same target?
A: inactive: -0.015

Q: And the log2 fold change [4]?
A: inactive: -0.021

Q: And the log2 fold change [5]?
A: inactive: 0.071

Q: And the log2 fold change [6]?
A: inactive: 0.074

Q: And the log2 fold change [7]?
A: inactive: -0.1

Q: What about the log2 fold change [8] of the same target?
A: inactive: -0.024

Q: What about the log2 fold change [9] of the same target?
A: inactive: 0.055

Q: And the log2 fold change [10]?
A: inactive: -0.008

Q: And the log2 fold change [11]?
A: inactive: 0

Q: And the log2 fold change [12]?
A: inactive: -0.073

Q: And the log2 fold change [13]?
A: inactive: -0.047

Q: And the log2 fold change [14]?
A: inactive: 0.018

Q: And the log2 fold change [15]?
A: inactive: 0.017

Q: What about the log2 fold change [16] of the same target?
A: inactive: -0.015

Q: And the log2 fold change [17]?
A: inactive: 0.051

Q: And the log2 fold change [18]?
A: inactive: -0.03

Q: And the log2 fold change [19]?
A: inactive: -0.044

Q: And the log2 fold change [20]?
A: inactive: 0.023

Q: Which log2 fold change [1] does the source give for RAB24 (UniProt Q969Q5) here?
A: inactive: -0.028

Q: And the log2 fold change [2]?
A: inactive: 0.029

Q: And the log2 fold change [3]?
A: inactive: -0.028

Q: What about the log2 fold change [4] of the same target?
A: inactive: -0.04

Q: And the log2 fold change [5]?
A: inactive: -0.01

Q: And the log2 fold change [6]?
A: inactive: -0.027

Q: And the log2 fold change [7]?
A: inactive: 0.012

Q: And the log2 fold change [8]?
A: inactive: -0.026

Q: And the log2 fold change [9]?
A: inactive: 0.07

Q: And the log2 fold change [10]?
A: inactive: -0.002

Q: What about the log2 fold change [11] of the same target?
A: inactive: -0.02

Q: And the log2 fold change [12]?
A: inactive: -0.051

Q: What about the log2 fold change [13] of the same target?
A: inactive: 0.021

Q: What about the log2 fold change [14] of the same target?
A: inactive: -0.046

Q: What about the log2 fold change [15] of the same target?
A: inactive: 0.015

Q: And the log2 fold change [16]?
A: inactive: -0.019

Q: And the log2 fold change [17]?
A: inactive: -0.028

Q: And the log2 fold change [18]?
A: inactive: 0.001

Q: And the log2 fold change [19]?
A: inactive: 0.019

Q: And the log2 fold change [20]?
A: inactive: 0.035

Q: What does the source list for QDPR (UniProt P09417)?
A: log2 fold change [1]: inactive: 0.017; log2 fold change [2]: inactive: 0.005; log2 fold change [3]: inactive: -0.033; log2 fold change [4]: inactive: -0.033; log2 fold change [5]: inactive: -0.035; log2 fold change [6]: inactive: -0.05; log2 fold change [7]: inactive: 0.031; log2 fold change [8]: inactive: -0.001; log2 fold change [9]: inactive: 0.026; log2 fold change [10]: inactive: 0.014; log2 fold change [11]: inactive: -0.063; log2 fold change [12]: inactive: -0.042; log2 fold change [13]: inactive: -0.003; log2 fold change [14]: inactive: -0.039; log2 fold change [15]: inactive: 0.037; log2 fold change [16]: inactive: -0.011; log2 fold change [17]: inactive: -0.003; log2 fold change [18]: inactive: -0.015; log2 fold change [19]: inactive: -0.005; log2 fold change [20]: inactive: 0.022

Q: RAF1 isoform 2 (UniProt P04049) was tested. Which log2 fold change [1] did it give?
A: inactive: 0.048

Q: What about the log2 fold change [2] of the same target?
A: inactive: -0.022

Q: What about the log2 fold change [3] of the same target?
A: inactive: 0.019

Q: What about the log2 fold change [4] of the same target?
A: inactive: -0.097

Q: What about the log2 fold change [5] of the same target?
A: inactive: -0.001

Q: And the log2 fold change [6]?
A: active: 1.06

Q: What about the log2 fold change [7] of the same target?
A: inactive: 0.048

Q: What about the log2 fold change [8] of the same target?
A: inactive: -0.007

Q: What about the log2 fold change [9] of the same target?
A: inactive: 0.052

Q: And the log2 fold change [10]?
A: inactive: 0.022

Q: And the log2 fold change [11]?
A: inactive: 0.077

Q: What about the log2 fold change [12] of the same target?
A: inactive: 0.014

Q: What about the log2 fold change [13] of the same target?
A: inactive: -0.047

Q: And the log2 fold change [14]?
A: inactive: 0.046

Q: What about the log2 fold change [15] of the same target?
A: inactive: -0.014

Q: What about the log2 fold change [16] of the same target?
A: inactive: -0.118

Q: And the log2 fold change [17]?
A: inactive: 0.025

Q: What about the log2 fold change [18] of the same target?
A: inactive: 0.025

Q: What about the log2 fold change [19] of the same target?
A: inactive: -0.004

Q: And the log2 fold change [20]?
A: inactive: -0.016

Q: QKI (UniProt Q96PU8) was tested. Which log2 fold change [1] did it give?
A: inactive: -0.058

Q: And the log2 fold change [2]?
A: inactive: -0.005

Q: And the log2 fold change [3]?
A: inactive: 0.024

Q: What about the log2 fold change [4] of the same target?
A: inactive: 0.029

Q: And the log2 fold change [5]?
A: inactive: -0.02

Q: What about the log2 fold change [6] of the same target?
A: inactive: 0.045

Q: What about the log2 fold change [7] of the same target?
A: inactive: -0.206

Q: And the log2 fold change [8]?
A: inactive: 0.069

Q: And the log2 fold change [9]?
A: inactive: 0.009

Q: What about the log2 fold change [10] of the same target?
A: inactive: 0.021

Q: What about the log2 fold change [11] of the same target?
A: inactive: -0.002

Q: What about the log2 fold change [12] of the same target?
A: inactive: 0.015

Q: And the log2 fold change [13]?
A: inactive: 0.047

Q: What about the log2 fold change [14] of the same target?
A: active: -0.212

Q: And the log2 fold change [15]?
A: inactive: -0.017

Q: What about the log2 fold change [16] of the same target?
A: inactive: 0.163

Q: And the log2 fold change [17]?
A: inactive: -0.021

Q: What about the log2 fold change [18] of the same target?
A: inactive: -0.043

Q: And the log2 fold change [19]?
A: inactive: -0.056

Q: What about the log2 fold change [20] of the same target?
A: inactive: 0.155

Q: Which results are given for QTRT2 isoform 4 (UniProt Q9H974)?
A: log2 fold change [1]: inactive: -0.105; log2 fold change [2]: inactive: 0.003; log2 fold change [3]: inactive: 0.018; log2 fold change [4]: inactive: -0.014; log2 fold change [5]: inactive: 0; log2 fold change [6]: inactive: -0.018; log2 fold change [7]: inactive: -0.044; log2 fold change [8]: inactive: 0.016; log2 fold change [9]: inactive: 0.008; log2 fold change [10]: inactive: 0.031; log2 fold change [11]: inactive: -0.016; log2 fold change [12]: inactive: -0.037; log2 fold change [13]: inactive: -0.018; log2 fold change [14]: active: -0.297; log2 fold change [15]: inactive: -0.008; log2 fold change [16]: inactive: 0.185; log2 fold change [17]: inactive: 0.003; log2 fold change [18]: inactive: -0.029; log2 fold change [19]: inactive: -0.089; log2 fold change [20]: active: 0.256

Q: Which log2 fold change [1] does the source give for RALGAPB (UniProt Q86X10) here?
A: inactive: 0.02

Q: And the log2 fold change [2]?
A: inactive: -0.056

Q: And the log2 fold change [3]?
A: inactive: -0.069

Q: What about the log2 fold change [4] of the same target?
A: inactive: 0.026

Q: And the log2 fold change [5]?
A: inactive: 0.012

Q: And the log2 fold change [6]?
A: inactive: 0.044

Q: What about the log2 fold change [7] of the same target?
A: inactive: 0.015

Q: What about the log2 fold change [8] of the same target?
A: inactive: 0

Q: What about the log2 fold change [9] of the same target?
A: inactive: 0.032

Q: And the log2 fold change [10]?
A: inactive: -0.007

Q: And the log2 fold change [11]?
A: inactive: 0.021

Q: What about the log2 fold change [12] of the same target?
A: inactive: -0.062

Q: And the log2 fold change [13]?
A: inactive: -0.088

Q: What about the log2 fold change [14] of the same target?
A: inactive: -0.09

Q: And the log2 fold change [15]?
A: inactive: 0.103

Q: What about the log2 fold change [16] of the same target?
A: inactive: -0.06

Q: What about the log2 fold change [17] of the same target?
A: inactive: 0.062

Q: What about the log2 fold change [18] of the same target?
A: inactive: 0.046

Q: And the log2 fold change [19]?
A: inactive: -0.043

Q: And the log2 fold change [20]?
A: inactive: 0.103
